# Primary screen of a compound library

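Viability assay of Plasmodium falciparum sporozoites; the read-out is not stated. The concentration is filed as 10 mM, unlikely as a test dose, so the dose is not known. The record gives no direction; compounds that gave an IC50 in retests scored well above the rest, so higher reads as lower viability. Strong results were mostly tested again. Of about 34,000 compounds tested this way, about 280 (0.84%) reached 50% or more in at least one test.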

Values are the deposited “Percent Effect”, in %. The record does not define 0% and 100%; most values in the screen are far below 50% and negative numbers occur (in some assays of this library far below -100). The compounds are a random part of those screened. Two or more numbers in one place are separate tests of the same structure; such repeats can differ widely.

compound,Percent Effect
O=C(O)C(F)(F)F.[H][C@@]12C[C@@H](C(=O)NC(C)C)C[C@@]1([H])N(Cc1cnn(C)c1)CCO2,-10.71%
Cc1csc(C(Cc2ccsc2)NC(=O)CN(C)Cc2ccccn2)n1.Cl (stereo not given),5.897%
CC(=O)NCC(=O)N1CCOC2(CCCN(c3cccnc3)C2)C1.O=C(O)C(F)(F)F (stereo not given),4.735%
Fc1cccc(-c2noc3c2CN(Cc2cncn2C2CC2)CC3)c1,-5.077%
Cc1cccc(Nc2cc(C3CCCN(CC(N)=O)C3)ccn2)n1.O=CO.O=CO (stereo not given),98.38% and 92.39% and 79.92%
Cc1ccccc1-c1noc(CN2CCC(N3CCNC3=O)CC2)n1,3.188%
COc1cccc(N2CCN(Cc3ccc(NC(C)=O)cc3)CC2=O)c1,-6.047%
CCOCc1nc2c(c(NC(CC)c3ccnn3C)n1)CCNCC2 (stereo not given),-9.748%
Cn1c(C2CC2)nc2c1CCN(CCOc1cccc(F)c1)C2,2.316%
CN(C(=O)C1CCCC1)C(c1cccc(F)c1)c1ccccn1 (stereo not given),-1.671%
CC(C(=O)NCc1ccc(N2CCCCCC2)nc1)S(C)(=O)=O (stereo not given),-0.4507%
O=C(O)C(F)(F)F.[H][C@@]12COC[C@@H](C(=O)N3CCCCO3)[C@]1([H])CN(C1CCOCC1)C2,-3.571%
Cc1nc(C)n(C2CCCN(C(=O)c3ccc(N(C)C)nn3)C2)n1 (stereo not given),-13.87%
CNC(=O)C1(Cc2cc(C(C)C)no2)CCN(Cc2cccnc2)C1 (stereo not given),2.153%
COCCN1CCC2(CC1)CC(NC(=O)COC)c1ccccc1O2.O=C(O)C(F)(F)F (stereo not given),10.07%
CC(=O)Nc1nc(CN2CCOC(Cn3cccn3)C2)cs1 (stereo not given),2.551%
O=C(NCc1cc[nH]n1)NCC(O)c1ccc(F)cc1 (stereo not given),0.9191%
O=C(O)C(F)(F)F.O=C(O)C(F)(F)F.[H][C@]12CC(=O)N(Cc3cccc(C)n3)[C@@]1([H])CCN2Cc1ccco1,5.415%
CCN(CC1CCOC1)C(=O)Nc1ccc(N2CCCCC2)nc1 (stereo not given),12.93%
COc1nonc1NCn1nc(C)cc1C,12.92%
CCNc1cc2c(nn1)CCN(C(=O)c1cc3cc(C)ccc3o1)C2,4.995%
Cn1cc(CNCC2Cn3nnc(-c4ccccc4)c3CO2)cn1 (stereo not given),-0.3356%
CC(=O)N1CCC(Cc2cnc(-c3c(C)nn(C)c3C)cn2)CC1,4.558%
Cc1cc(C(=O)NCc2ccnc(OCC(F)(F)F)c2)no1,-2.549%
COc1ccccc1Oc1ncccc1CNC(=O)[C@@H](C)NC(C)=O,-8.959%
Cc1nc(Nc2nnc(C)s2)cc(C2CCCN2)n1.Cl (stereo not given),14.25%
Cc1ccc(-c2nc(CN(Cc3ccco3)C3CCS(=O)(=O)C3)cs2)o1 (stereo not given),19.69%
O=C(C1CNCCN1C(=O)CCOc1ccccc1)N1CCCC1 (stereo not given),1.298%
O=C(NCCCn1cncn1)NCC(c1ccco1)N1CCCCC1 (stereo not given),4.162%
[H][C@@]12CS(=O)(=O)C[C@]1([H])N(C(=O)CCC(F)(F)F)CCN2Cc1[nH]cnc1C,2.599%
CN(CCN1CCOCC1)C(=O)CCc1ccc(C(F)(F)F)cc1,16.93%
COc1ccccc1CNc1ncc(-c2cc(C)no2)c(C(C)C)n1,6.196%
O=C(c1cn(CCN2CCCCC2)nn1)N1CCSCC1,-11.94%
O=CO.c1nc(CN2CCCC(Cc3ccc(NC4CCCC4)nn3)C2)c[nH]1 (stereo not given),-1.023%
CCCNC(=O)COc1cc(C)c2c(C)nn(-c3ccccc3)c2n1,-9.221%
Cc1nn(C)c(C)c1C1COCCN1C(=O)c1cnc(N)c(Cl)c1 (stereo not given),4.252%
CCn1nc(C)cc1C(=O)N1CCOc2ccc(OC)cc21,10.1%
CCn1ccnc1-c1nc2cc(S(=O)(=O)N3CCCC3)ccc2n1C,-0.1181%
COc1ccccc1OCCNc1snc(Cl)c1C#N,5.486%
CN(CCNC(=O)c1cnc(-c2ccccc2)nc1)S(C)(=O)=O,-8.462%
[H][C@]12CCC(=O)N[C@@]1(C)CCCCN2Cc1ccc(F)c(OC)c1,6.595%
CCC(=O)NCCCn1c(-c2cccnc2C)cc2cccnc21.Cl,-2.606%
Cc1cncc(NC(=O)c2ccc(CN3CCCC(C(N)=O)C3)cc2)c1 (stereo not given),-5.227% and 10.36%
O=C(CCc1cccs1)N1CCC(N2CCNC2=O)CC1,-19.82% and -15.55% and -16.65%
CCn1cnnc1CNC(=O)N1CCC(C)CC1,18.91%
Cn1cc(C(=O)N2CCN(c3ccccc3)CC2)ccc1=O,-22.53%
CN(C)CC1CSCCCN1C(=O)c1ccc(C(C)(C)C)cc1 (stereo not given),-1.229%
CC(Cc1cccc(Cl)c1)NC(=O)Nc1cnn(CC(N)=O)c1 (stereo not given),7.739%
Cc1nn(C)c(C)c1OCC(=O)NCc1cccc(CO)c1,8.653%
Cc1ccc(CC(=O)N2CCCC(n3ccnc3C(C)C)C2)cn1 (stereo not given),-8.887%
COC(=O)C(NC(=O)C1CC1)c1cc(F)ccc1F (stereo not given),-5.83%
CCOCCn1nc(C)cc1C(=O)N1CC[C@](C)(O)[C@H](C)C1,8.118%
Cc1cc(C)n(Cc2cc(C(=O)N3CCCCC3c3nccs3)n[nH]2)n1 (stereo not given),-6.685%
CN(C)c1ccc(C(=O)N2CCC(c3cc4ncccc4[nH]3)CC2)cc1,-1.989%
Cc1ccc(CN2CCN(c3ccc(F)cn3)CC2=O)cc1C,-14%
CSCc1nc(C(C)(C)NC(=O)OC(C)(C)C)no1,-11.16%
O=C(O)C(F)(F)F.O=C(O)CCC(=O)N1CCN(CC2CC2)c2ncccc2C1,7.726%
COc1ccc(CNCc2ccnc(N3CCOCC3)c2)cc1OC,13.85%
COc1ccc(CC(=O)N2CCCC(n3cc(C)cn3)C2)c(OC)c1 (stereo not given),1.577%

The first 5 entries again:

{"compound": "O=C(O)C(F)(F)F.[H][C@@]12C[C@@H](C(=O)NC(C)C)C[C@@]1([H])N(Cc1cnn(C)c1)CCO2", "Percent Effect": -10.71}
{"compound": "Cc1csc(C(Cc2ccsc2)NC(=O)CN(C)Cc2ccccn2)n1.Cl", "stereo": "stereo not given", "Percent Effect": 5.897}
{"compound": "CC(=O)NCC(=O)N1CCOC2(CCCN(c3cccnc3)C2)C1.O=C(O)C(F)(F)F", "stereo": "stereo not given", "Percent Effect": 4.735}
{"compound": "Fc1cccc(-c2noc3c2CN(Cc2cncn2C2CC2)CC3)c1", "Percent Effect": -5.077}
{"compound": "Cc1cccc(Nc2cc(C3CCCN(CC(N)=O)C3)ccn2)n1.O=CO.O=CO", "stereo": "stereo not given", "Percent Effect": "98.38 and 92.39 and 79.92"}

The values are deposited in ChEMBL (CHEMBL3988442, “University of Dundee, Small-Polar-MMV Screening Library” (2021)).